PubChem BioAssay AID1053208 | Peter MacCallum Cancer Centre | 2014

- Assay: 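Genes whose silencing cuts survival of bone tumour cells only with doxorubicin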 (primary screen)
- System: mouse osteosarcoma cells, early-passage culture from an engineered mouse model of fibroblastic bone tumour
- Reagent: siRNA pool against mouse genes, 40 nM
- Duration: about 120 h (48 h before drug, then 72 h with drug)
- Challenge: doxorubicin 100 nM for 72 h, roughly 30-40% inhibitory dose
- Measurement: 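Viability read as ATP luminescence after 72 h of 100 nM doxorubicin or none, duplicate wells averaged, scaled to non-targeting siRNA, then expressed as robust z-scores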
- Reading the numbers: viability z-score with doxorubicin: higher = more viable cells under doxorubicin; viability z-score without drug: higher = more viable cells with knock-down alone
- Rule for the call: 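a pool counts as active when its viability z-score with doxorubicin is -2 or below and its z-score without drug lies between -2 and 2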
In all, the deposit lists about 17,000 reagents; this is an unselected part. Over the whole deposit, 788 (4.7%) were called active. 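Calls rest on z-score classes alone; an extra cut-off of viability at most 70% of control was not applied to them.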 Further read-outs or replicates are left out here. Reagent sequences are not shown.

The opening 2 records, ahead of the listing:
target gene	combined z-score class	viability z-score with doxorubicin	viability z-score without drug	activity call
Nlrp3	no change with or without drug	0	0.67	inactive
Rad51d	no change with or without drug	0.22	-1.18	inactive

The list itself, repeating the preview:
target gene	combined z-score class	viability z-score with doxorubicin	viability z-score without drug	activity call
Nlrp3	no change with or without drug	0	0.67	inactive
Rad51d	no change with or without drug	0.22	-1.18	inactive
Klra16	no change with or without drug	0.56	1.52	inactive
Phka1	no change with or without drug	0.22	-0.17	inactive
Neo1	no change with or without drug	0.56	-1.18	inactive
Hps3	no change with or without drug	0.22	0.34	inactive
Pvalb	no change with or without drug	0.34	0	inactive
Csgalnact2	high cell count with doxorubicin only	2.02	1.69	inactive
Tnfrsf10b	no change with or without drug	-0.45	0.84	inactive
Col7a1	no change with or without drug	0.67	1.52	inactive
Tmem161b	no change with or without drug	-1.35	0.67	inactive
Hoxd9	no change with or without drug	0.45	-0.84	inactive
Or6c69	no change with or without drug	0	0.17	inactive
Avil	no change with or without drug	-0.22	-0.84	inactive
Cobl	no change with or without drug	0	0	inactive
Or52a5b	no change with or without drug	-1.01	-0.51	inactive
Dlgap1	high cell count with doxorubicin only	3.26	1.52	inactive
Dnajc28	no change with or without drug	1.57	0	inactive
Orc6	high cell count without drug only	1.01	2.7	inactive
Bnip1	no change with or without drug	-1.57	-1.69	inactive
B3galt4	no change with or without drug	-1.57	0.34	inactive
Nipal2	no change with or without drug	-0.9	0	inactive
Tph1	no change with or without drug	0.67	0.17	inactive
0610007P08RIK	no change with or without drug	1.69	1.52	inactive
Tpm2	no change with or without drug	0	-0.17	inactive
Cox14	no change with or without drug	-0.56	0.51	inactive
Timm8b	low cell count with doxorubicin only	-3.15	-0.17	active
Gpr107	no change with or without drug	-0.67	0.17	inactive
Map6	no change with or without drug	-1.46	0.51	inactive
Sall4	no change with or without drug	-0.67	1.18	inactive
Trp53bp1	no change with or without drug	-0.79	0.17	inactive
Rcl1	no change with or without drug	0.45	-1.85	inactive
Ms4a6c	no change with or without drug	-0.22	-1.85	inactive
Npdc1	no change with or without drug	0.22	-0.34	inactive
Anxa5	no change with or without drug	-1.24	0.84	inactive
Zc3h8	low cell count with doxorubicin only	-2.25	0.34	active
Ikzf2	low cell count without drug only	0.9	-4.05	inactive
Tnxb	no change with or without drug	-0.45	-0.17	inactive
Eif5	no change with or without drug	0.34	0.67	inactive
Acadm	no change with or without drug	1.24	-0.17	inactive
H2bc3	no change with or without drug	-0.22	0.17	inactive
Cemip2	high cell count without drug only	1.91	2.53	inactive
Tcl1b3	low cell count with doxorubicin only	-2.36	-0.84	active
Desi1	no change with or without drug	0.45	0.34	inactive
Chil6	no change with or without drug	1.12	-0.17	inactive
Abhd5	no change with or without drug	0.34	-0.17	inactive
Zcchc10	no change with or without drug	-0.9	-0.17	inactive
Ubxn10	no change with or without drug	0.22	-0.51	inactive
Vmn1r174	no change with or without drug	-0.45	0.17	inactive
Tfap2d	no change with or without drug	1.12	1.18	inactive
